Screen size: about 230,000 compounds; about 310 (0.13%) were called active. Roughly 2% stayed inconclusive and do not appear here. The call rests on the fitted dose curve; in most records, active means well fitted activation curve with a large enough effect; inconclusive means small, poorly fitted or top-dose-only effect; inactive means no such curve, though single readings can be large or run the other way. The entries are a selection whose mix differs from that of the whole data set. Entries without a call were filed so in the source.
Assay: qHTS Multiplex Assay to Identify Dual Action Probes in a Cell Model of Huntington: Cytoprotection (ATP); further: nearly all actives have a fitted effect of over 45% in size;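 on cytoprotection (ATP increase): toxic huntingtin expression switched on by the ecdysone agonist tebufenozide; % of control where 0% means no effect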
Settings: PC12 HTT-Q103 induced, ATP luminescence, 40 h; cytoprotection (ATP increase): at 56.4 µM (top of the series) unless noted
From the text: NIH Chemical Genomics Center [NCGC]
NIH Molecular Libraries Probe Production centers Network [MLPCN]
Assay Submitter (PI): Wei Zheng
Huntington's disease is a neurodegenerative disorder caused by a trinucleotide repeat expansion in Exon 1 of the Huntingtin gene. The CAG trinucleotide encodes glutamine and polyglutamine expansions cause cell death in selective areas of the brain. Huntington polyglutamine repeats have the tendency to form aggregates which are observable in later stages of the disease. The exact nature of the aggregates, whether toxic, protective, or insignificant, is unclear.
A stable PC12 cell line containing a gene fusion of Exon 1 of the Huntingtin gene linked to GFP under the control of the inducible ecdysone promoter were used as the cell-based model of Huntington Disease for high throughput screening. Exon 1 of the Huntingtin gene contained an expansion of 103 polyglutamines (Q103) which, when expressed, caused cell death and distinct, bright GFP aggregates. The amount of cell death and the size and intensity of GFP aggregates increased over time and induction level. The cell death were quantified with a measurement of ATP content in the cells. A maximal 40-50% of cell death was observed when the Huntington gene was induced in this cell line.
We optimized this assay in a homogeneous 1536 well format. A quantitative high throughput screen (qHTS) was conducted on the PC12 cells which were induced to express the toxic fusion construct. Small molecules which prevented cell death were identified by using a luminescent ATP quantification method (Perkin Elmer's ATPlite).
PC12 cells stably containing a construct with an ecdysone inducible promoter expressing GFP fused to the exon 1 of HTTQ103 (Huntington protein which containing a 103 ployglutamine expansion) were used.
NCGC Assay Protocol Summary:
Sequence, Parameter, Description
1, Reagent, 5 uL 1500 cells/well 1536 TC treated White clear bottom plate
2, Compound, 23 nL Tebufenozide inducer (100 nM final) to all columns
3, Compound, 23 nL 40 uM to 0.5 nM Libraries
5, Reagent, 5 ul ATPLite cell death assay reagent
6, Detector, 4 sec integration with a Viewlux Luminescent
Media consisted of phenol red free DMEM + 5% equine serum (Hyclone # SH30072.03 ), 5% supplemented Bovine Calf Serum (Hyclone # SH30074.03 ), 1x pen/strep, no G418
Control columns: 1 = DMSO, 2= 2 uM teb dilns (1:1), 4 = 100 nM Teb inducer. Sample columns received 100 nM Teb.
Potency means the concentration at half of the fitted maximal effect.

Row | SMILES | cytoprotection (ATP increase) | Potency
1 | Cc1ccc(-c2cc(=O)c3ccccc3[nH]2)cc1 | -210% [at 96.6 µM] | 
2 | NC(Cc1ccc(O)c(O)c1)C(=O)O (centres undefined) | -160% | 
3 | CCOC(=O)c1ccc(S(=O)(=O)Nc2nc3cc(S(=O)(=O)NC4=NCCCCC4)ccc3s2)cc1 |  | active: 17.8 µM
4 | C/C(=C\c1ccco1)C1C(C#N)=C(N)Oc2n[nH]c(-c3ccc(C)cc3)c21 (centres undefined) |  | active: 3.55 µM
5 | CC/C=C\C/C=C\C/C=C\C/C=C\C/C=C\C/C=C\CCC(=O)NCCCC(=O)O | 36.4% | 
6 | COc1ccc(Nc2ncnc3ccc(OC)cc23)cc1 | -60.3% | 
7 | N#CCCn1c(=O)c(-c2ccc(F)cc2)nc2cnc(Oc3cccc(Cl)c3)nc21 |  | active: 3.16 µM
8 | COc1cc(C(=O)NNC(=O)c2ccc(NC(C)=O)cc2)cc(OC)c1OC | 7.17% | 
9 | CCOC(=O)N1CCN(C(=O)c2ccc(CS(=O)(=O)c3c(Cl)cccc3Cl)o2)CC1 | 305% [at 10 µM] | 
10 | Clc1ccc(OCCN2CCCCC2)cc1Cl | 160% [at 0.074 µM] | 
11 | CCCCCCCC/C=C\CCCCCCCC(=O)NCCc1ccc(O)c(O)c1 | -341% | 
12 | COC(=O)C(c1ccc(OC)c(OC)c1)C1c2ccccc2C=C(C)N1C(=O)OC (centres undefined) | 36.8% | 
13 | CC1=NC(C#N)=C(C#N)NC(C)(C)C1 | 43.9% | 
14 | C=C[C@H]1CCC=C2C(=O)CCC[C@@H]21 | 7.24% | 
15 | O=C(Oc1ccccc1)C1O[C@@H]1c1ccccc1 (some centres undefined) | 21.6% | 
16 | CCCCCCCCCCCCCCCC(=O)NCC(=O)O | 30.6% | 
17 | CCOC(=O)CNC(=O)O[C@H]1C(=O)c2ccc(OC)cc2O[C@@H]1c1ccc2c(c1)OCO2 | -10.6% | 
18 | CC(=O)Oc1c(C)c(C)c2c(c1C)CCC(C)(CCCC(C)CCCC(C)CCCC(C)C)O2 (centres undefined) | 33.9% | 
19 | COC(=O)CCCC1=CC2=CC(=O)C(C)(OC(=O)c3ccco3)C(=O)C2=CO1 (centres undefined) | 53% | 
20 | COc1ccc(CNC(=O)CCCNS(=O)(=O)c2cccc3nonc23)cc1 |  | active: 3.55 µM
21 | CCCCC/C=C\C/C=C\C/C=C\C/C=C\CCCC(=O)OC(CO)CO | 109% | 
22 | COc1ccc(C(=O)Oc2cc(N)n(S(=O)(=O)c3ccccc3)n2)cc1 |  | active: 0.708 µM

Row | SMILES | cytoprotection (ATP increase) | Potency
23 | CCCCC[C@H](O)C/C=C1/C(=O)C=C[C@@H]1C/C=C\CCCC(=O)O | 69.8% | 
24 | C#CC[N+]1(CC#Cc2cccc(C)c2)CCCCC1 | -38.5% | 
25 | Cc1ccc(Nc2nc(-c3ccc(O)cc3O)cs2)nc1 | 413% [at 10 µM] | 
26 | O=C1CCCCC2CCCCN12 (centres undefined) | -32.6% [at 96.6 µM] | 
27 | C=C(C)[C@]12C[C@@H](C)[C@@]34OC(Cc5ccccc5)(O[C@@H]1[C@@H]3C=C(COC(=O)Cc1cc(OC)c(O)cc1I)C[C@]1(O)C(=O)C(C)=C[C@@H]41)O2 | -343% | 
28 | CNC(=S)N(Cc1cccs1)Cc1cc2cc(OC)ccc2[nH]c1=O | 229% [at 10 µM] | 
29 | Cc1cc(O)c(C=O)c2c1C(=O)Oc1c(COC(=O)/C=C/C(=O)O)c(O)c(C(=O)O)c(C)c1O2 | 76.2% | 
30 | CCOc1ccccc1-c1ccc(C(=O)O)s1 | -53.2% [at 96.6 µM] | 
31 | CS(=O)(=O)Nc1ccc([N+](=O)[O-])cc1OC1CCCCC1 | -52.2% | 
32 | N#Cc1cccc(CS(=O)(=O)c2nc3ccccc3s2)c1 | 38.2% | 
33 | O=[N+]([O-])c1cc(S(=O)(=O)/N=C(/c2ccccc2)N2CCOCC2)ccc1Cl | -120% | 
34 | O=C(CCNC(=O)c1ccccc1Cl)Nc1nc(-c2ccc(F)cc2)cs1 | 271% [at 10 µM] | 
35 | CCCOc1ccc(C(=O)Nc2ccc(S(=O)(=O)Nc3onc(C)c3C)cc2)cc1 | -37.6% | 
36 | COC(=O)[C@@]1(Cc2ccc(OC)cc2)[C@@H]2C(=CC(=O)[C@H]2CC(=O)C(=O)N2CCCC2)CN1C(=O)c1ccccc1 |  | active: 7.08 µM
37 | CC(C)OC(=O)[C@@H]1CC[C@H](C)[C@@H](CCCC=O)O1 | -67.6% | 
38 | Cc1[nH]c2ccccc2c1C(=O)COC(=O)C1CCC(=O)N1 (centres undefined) | 43.5% | 
39 | CC(C)OC(=O)[C@@H]1CC[C@H](C)[C@@H](CCC[C@@H]2C[C@@H](O)C[C@H](CC#N)O2)O1 | 42.1% | 
40 | Brc1ccc(C2=NCCC(c3ccccc3)O2)cc1 (centres undefined) | -55.2% | 
41 | CCCCCCCCCCCCCCCC(=O)NCCO | -17.1% | 
42 | [O][C@H]1[C@@H](O)[C@@H](CO)O[C@@H](O[C@@H]2[C@@H]3OC[C@H]2O[C@H](O[C@@H]2[C@@H](O)[C@H](C[C@@H]4[C@@H]5OC[C@H]4O[CH][C@@H]5O)O[C@H](CO)[C@@H]2OS(=O)(=O)O)[C@@H]3OS(=O)(=O)O)[C@@H]1O | -36.7% | 
43 | NC(=O)CS(=O)(=O)c1nc2ccccc2n1Cc1ccccc1F |  | active: 25.1 µM
44 | O=c1cc(N2CCNCC2)oc2c(-c3ccccc3)cccc12 | -64.5% | 

3 compounds picked at random from those above, as already listed:
Row | SMILES | cytoprotection (ATP increase) | Potency
43 | NC(=O)CS(=O)(=O)c1nc2ccccc2n1Cc1ccccc1F |  | active: 25.1 µM
27 | C=C(C)[C@]12C[C@@H](C)[C@@]34OC(Cc5ccccc5)(O[C@@H]1[C@@H]3C=C(COC(=O)Cc1cc(OC)c(O)cc1I)C[C@]1(O)C(=O)C(C)=C[C@@H]41)O2 | -343% | 
23 | CCCCC[C@H](O)C/C=C1/C(=O)C=C[C@@H]1C/C=C\CCCC(=O)O | 69.8% | 

Source: PubChem BioAssay AID1471 (National Center for Advancing Translational Sciences (NCATS), 2008)
